# Reference: the supplement of paper PMC12067093, “Discovery and optimisation of a covalent ligand for TRIM25 and its application to targeted protein ubiquitination” (Chemical Science, 2025)
# The chains behind the UniProt entries cited, without tags or fusion partners. Where a name states a change or a piece, a line headed by the entry shows the natural chain unless it says otherwise.
# UniProt Q9BQC3: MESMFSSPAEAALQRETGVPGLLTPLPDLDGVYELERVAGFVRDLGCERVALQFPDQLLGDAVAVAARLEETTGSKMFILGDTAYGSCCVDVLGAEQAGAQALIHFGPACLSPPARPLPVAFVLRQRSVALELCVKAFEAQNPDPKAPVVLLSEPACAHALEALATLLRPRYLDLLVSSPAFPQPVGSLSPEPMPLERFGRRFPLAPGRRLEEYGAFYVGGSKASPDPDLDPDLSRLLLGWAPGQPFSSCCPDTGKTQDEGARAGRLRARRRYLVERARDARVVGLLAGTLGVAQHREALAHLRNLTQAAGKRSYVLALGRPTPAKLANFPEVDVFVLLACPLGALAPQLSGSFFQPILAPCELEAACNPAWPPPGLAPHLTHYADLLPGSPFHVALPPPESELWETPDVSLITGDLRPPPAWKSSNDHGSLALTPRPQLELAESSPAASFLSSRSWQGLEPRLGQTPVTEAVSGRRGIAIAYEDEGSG
# UniProt Q96BY6: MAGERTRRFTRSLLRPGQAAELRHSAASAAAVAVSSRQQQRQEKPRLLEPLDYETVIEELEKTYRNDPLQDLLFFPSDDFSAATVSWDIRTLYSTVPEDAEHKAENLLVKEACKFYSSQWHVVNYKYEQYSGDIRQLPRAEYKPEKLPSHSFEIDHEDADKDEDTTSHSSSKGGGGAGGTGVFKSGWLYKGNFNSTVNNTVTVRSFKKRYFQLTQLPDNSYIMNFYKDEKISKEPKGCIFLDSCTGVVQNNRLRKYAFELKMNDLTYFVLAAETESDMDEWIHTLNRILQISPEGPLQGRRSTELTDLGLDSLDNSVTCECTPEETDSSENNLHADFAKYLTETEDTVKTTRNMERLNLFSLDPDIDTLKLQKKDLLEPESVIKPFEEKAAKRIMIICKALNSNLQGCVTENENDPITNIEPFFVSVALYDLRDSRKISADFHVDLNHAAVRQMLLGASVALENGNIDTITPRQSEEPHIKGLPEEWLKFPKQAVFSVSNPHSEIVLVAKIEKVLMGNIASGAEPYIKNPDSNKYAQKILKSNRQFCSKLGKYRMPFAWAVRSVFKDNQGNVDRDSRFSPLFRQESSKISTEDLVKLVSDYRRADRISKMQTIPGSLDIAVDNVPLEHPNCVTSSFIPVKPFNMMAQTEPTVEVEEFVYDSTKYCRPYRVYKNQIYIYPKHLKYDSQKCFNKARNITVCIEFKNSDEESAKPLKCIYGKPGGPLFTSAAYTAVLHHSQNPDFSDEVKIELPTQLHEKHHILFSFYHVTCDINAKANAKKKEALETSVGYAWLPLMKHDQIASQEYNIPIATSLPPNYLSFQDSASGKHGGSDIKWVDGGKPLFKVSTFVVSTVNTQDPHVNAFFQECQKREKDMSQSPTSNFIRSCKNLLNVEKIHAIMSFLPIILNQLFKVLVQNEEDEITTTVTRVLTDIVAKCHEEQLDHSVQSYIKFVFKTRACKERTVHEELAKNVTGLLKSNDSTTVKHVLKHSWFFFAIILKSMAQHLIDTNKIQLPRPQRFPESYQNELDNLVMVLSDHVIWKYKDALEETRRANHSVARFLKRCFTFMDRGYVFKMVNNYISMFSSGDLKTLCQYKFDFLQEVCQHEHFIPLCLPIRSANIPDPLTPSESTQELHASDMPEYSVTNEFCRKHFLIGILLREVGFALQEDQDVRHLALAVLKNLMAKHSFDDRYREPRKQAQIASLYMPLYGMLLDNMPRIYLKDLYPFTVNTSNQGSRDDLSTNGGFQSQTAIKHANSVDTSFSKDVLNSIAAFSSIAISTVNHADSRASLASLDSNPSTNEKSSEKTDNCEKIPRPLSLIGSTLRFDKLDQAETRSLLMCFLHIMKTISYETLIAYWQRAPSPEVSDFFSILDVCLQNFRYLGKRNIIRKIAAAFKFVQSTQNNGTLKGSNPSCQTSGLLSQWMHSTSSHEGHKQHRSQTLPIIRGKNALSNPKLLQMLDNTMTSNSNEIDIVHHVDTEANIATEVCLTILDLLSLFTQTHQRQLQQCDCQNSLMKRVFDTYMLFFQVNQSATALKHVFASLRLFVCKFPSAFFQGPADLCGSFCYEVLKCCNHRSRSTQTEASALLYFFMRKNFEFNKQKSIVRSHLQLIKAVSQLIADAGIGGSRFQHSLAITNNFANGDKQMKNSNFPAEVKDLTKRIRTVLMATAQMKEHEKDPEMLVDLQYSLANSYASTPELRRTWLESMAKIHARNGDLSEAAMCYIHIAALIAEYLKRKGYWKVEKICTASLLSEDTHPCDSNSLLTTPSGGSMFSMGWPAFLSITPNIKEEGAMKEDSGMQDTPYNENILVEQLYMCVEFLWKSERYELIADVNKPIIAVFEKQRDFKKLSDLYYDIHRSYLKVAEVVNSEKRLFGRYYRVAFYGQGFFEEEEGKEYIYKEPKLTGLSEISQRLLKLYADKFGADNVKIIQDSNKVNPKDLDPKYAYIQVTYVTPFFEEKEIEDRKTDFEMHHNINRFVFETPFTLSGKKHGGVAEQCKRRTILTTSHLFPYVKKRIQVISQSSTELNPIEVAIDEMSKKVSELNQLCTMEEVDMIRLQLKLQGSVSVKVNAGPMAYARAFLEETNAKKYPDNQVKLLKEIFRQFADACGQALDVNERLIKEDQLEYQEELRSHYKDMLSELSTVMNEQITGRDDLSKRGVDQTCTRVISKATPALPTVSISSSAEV
# UniProt Q5JSL3: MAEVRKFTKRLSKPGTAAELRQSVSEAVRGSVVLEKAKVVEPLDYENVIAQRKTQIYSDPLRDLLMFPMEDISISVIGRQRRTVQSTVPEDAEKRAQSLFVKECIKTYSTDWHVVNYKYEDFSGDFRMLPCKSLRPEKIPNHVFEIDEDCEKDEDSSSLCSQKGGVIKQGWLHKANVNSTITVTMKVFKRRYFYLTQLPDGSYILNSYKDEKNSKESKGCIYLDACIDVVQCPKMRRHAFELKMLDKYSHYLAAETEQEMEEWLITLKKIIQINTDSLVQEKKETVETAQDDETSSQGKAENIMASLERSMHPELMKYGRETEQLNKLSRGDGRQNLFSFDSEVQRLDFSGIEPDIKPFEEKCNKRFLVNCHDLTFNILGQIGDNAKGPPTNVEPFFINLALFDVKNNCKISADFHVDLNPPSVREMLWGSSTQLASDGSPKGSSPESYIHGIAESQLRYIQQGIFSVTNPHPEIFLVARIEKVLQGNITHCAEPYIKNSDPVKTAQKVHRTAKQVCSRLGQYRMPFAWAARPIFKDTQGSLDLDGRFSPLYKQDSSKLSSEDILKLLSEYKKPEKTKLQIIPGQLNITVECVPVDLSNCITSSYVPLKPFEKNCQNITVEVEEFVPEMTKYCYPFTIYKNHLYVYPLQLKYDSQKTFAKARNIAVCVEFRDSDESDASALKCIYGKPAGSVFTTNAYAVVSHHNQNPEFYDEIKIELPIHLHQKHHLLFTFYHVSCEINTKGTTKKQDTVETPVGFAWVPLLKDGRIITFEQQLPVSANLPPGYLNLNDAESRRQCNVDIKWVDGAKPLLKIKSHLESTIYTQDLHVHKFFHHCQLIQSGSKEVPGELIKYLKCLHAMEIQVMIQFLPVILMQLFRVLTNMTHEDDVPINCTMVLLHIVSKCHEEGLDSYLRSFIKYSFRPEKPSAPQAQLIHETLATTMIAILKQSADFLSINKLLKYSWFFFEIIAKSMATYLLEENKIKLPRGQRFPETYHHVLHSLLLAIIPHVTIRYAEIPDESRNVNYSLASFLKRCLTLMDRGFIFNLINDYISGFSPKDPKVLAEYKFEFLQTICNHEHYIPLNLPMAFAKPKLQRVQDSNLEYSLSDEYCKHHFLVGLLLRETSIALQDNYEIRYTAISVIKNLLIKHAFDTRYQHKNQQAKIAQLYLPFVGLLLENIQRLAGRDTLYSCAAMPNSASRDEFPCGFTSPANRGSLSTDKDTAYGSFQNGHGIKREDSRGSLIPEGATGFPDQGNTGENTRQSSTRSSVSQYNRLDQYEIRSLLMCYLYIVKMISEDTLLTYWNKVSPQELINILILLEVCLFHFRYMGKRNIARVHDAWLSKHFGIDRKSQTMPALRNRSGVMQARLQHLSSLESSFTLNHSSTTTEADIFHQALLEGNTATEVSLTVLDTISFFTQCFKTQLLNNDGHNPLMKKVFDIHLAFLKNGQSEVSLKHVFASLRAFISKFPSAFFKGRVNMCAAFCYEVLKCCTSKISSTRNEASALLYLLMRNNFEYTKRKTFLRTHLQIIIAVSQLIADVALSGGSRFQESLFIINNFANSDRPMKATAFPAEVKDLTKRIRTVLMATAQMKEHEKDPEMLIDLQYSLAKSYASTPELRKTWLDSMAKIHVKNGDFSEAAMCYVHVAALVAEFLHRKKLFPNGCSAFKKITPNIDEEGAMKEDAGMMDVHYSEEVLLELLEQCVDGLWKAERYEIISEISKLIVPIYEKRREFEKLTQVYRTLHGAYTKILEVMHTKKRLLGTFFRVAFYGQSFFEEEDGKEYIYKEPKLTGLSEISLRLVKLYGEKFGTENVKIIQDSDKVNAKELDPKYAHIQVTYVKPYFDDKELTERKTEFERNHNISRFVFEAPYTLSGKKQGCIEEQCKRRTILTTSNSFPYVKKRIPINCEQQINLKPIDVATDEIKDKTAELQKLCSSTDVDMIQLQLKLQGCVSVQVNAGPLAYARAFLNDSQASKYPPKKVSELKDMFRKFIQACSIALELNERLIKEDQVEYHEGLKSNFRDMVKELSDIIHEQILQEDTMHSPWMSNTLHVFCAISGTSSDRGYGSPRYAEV
# UniProt P23919: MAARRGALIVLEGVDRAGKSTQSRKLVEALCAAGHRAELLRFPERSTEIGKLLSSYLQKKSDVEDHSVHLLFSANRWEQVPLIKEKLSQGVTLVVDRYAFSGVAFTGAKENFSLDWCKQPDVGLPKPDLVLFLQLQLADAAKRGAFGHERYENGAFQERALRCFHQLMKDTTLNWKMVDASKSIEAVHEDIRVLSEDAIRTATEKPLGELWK
# UniProt Q8TEK3: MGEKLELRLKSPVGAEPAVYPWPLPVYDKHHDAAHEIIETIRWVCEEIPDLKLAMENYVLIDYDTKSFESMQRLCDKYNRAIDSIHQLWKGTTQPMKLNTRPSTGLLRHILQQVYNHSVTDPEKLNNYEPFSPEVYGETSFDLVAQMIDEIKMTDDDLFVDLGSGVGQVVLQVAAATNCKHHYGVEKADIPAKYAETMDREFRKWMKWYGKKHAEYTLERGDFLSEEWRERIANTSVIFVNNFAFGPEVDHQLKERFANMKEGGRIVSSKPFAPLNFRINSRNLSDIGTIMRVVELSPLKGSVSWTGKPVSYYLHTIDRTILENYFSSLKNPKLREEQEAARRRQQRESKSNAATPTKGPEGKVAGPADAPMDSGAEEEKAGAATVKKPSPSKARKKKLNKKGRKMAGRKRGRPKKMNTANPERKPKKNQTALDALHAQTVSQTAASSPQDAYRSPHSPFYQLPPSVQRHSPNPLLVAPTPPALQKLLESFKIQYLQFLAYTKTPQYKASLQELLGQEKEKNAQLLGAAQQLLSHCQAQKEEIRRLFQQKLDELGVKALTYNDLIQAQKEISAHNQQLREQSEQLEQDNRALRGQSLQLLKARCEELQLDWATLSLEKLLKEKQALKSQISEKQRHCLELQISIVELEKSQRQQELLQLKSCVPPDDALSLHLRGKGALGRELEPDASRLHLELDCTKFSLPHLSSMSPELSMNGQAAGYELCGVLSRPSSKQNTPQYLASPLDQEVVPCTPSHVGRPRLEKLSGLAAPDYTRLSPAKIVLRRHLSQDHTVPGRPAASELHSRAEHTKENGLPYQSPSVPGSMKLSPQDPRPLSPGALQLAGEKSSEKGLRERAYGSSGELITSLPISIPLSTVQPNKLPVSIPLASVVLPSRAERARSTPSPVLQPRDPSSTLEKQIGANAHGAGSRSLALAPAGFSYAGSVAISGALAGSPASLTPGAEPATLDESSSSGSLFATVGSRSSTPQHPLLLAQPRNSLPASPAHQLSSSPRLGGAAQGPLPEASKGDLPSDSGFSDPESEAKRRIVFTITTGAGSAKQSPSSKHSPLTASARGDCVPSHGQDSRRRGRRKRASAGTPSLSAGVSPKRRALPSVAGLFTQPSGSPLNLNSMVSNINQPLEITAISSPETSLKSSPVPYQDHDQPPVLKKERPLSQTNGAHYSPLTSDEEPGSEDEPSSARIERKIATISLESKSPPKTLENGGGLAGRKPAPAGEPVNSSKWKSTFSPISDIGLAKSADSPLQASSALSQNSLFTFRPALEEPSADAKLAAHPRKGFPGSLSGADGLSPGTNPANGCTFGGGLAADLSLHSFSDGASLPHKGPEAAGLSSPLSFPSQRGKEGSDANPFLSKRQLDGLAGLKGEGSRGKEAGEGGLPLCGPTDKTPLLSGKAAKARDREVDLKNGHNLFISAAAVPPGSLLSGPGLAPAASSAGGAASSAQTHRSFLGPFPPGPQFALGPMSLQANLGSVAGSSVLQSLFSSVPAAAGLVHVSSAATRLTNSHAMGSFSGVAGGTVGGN
# The list shows a part of the results.
# Compound: Cc1cc(ccc1-c1ccccc1)C(=O)N1CCCN(CC1)C(=O)CCl [compound 10]
# Assay: probe-labelled cysteine peptide fold change vs DMSO (competition) (log2 fold change); higher = less target engagement (more negative = stronger competition)
# Conditions: THP-1, incubation time: 4 h
# 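Further: competitive profiling in live THP-1 cells: cysteine peptides tagged with an iodoacetamide desthiobiotin (IA-DTB) probe, intensity after compound treatment relative to DMSO-treated cells.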
target,measurement,setting,value
DUS3L_Q96G46_282_TCGPLTDEDVVR (UniProt Q96G46),probe-labelled cysteine peptide fold change,10 µM,-0.375
same,probe-labelled cysteine peptide fold change,50 µM,-0.156
DYNC1H1_Q14204_2639_TFDHYCEYRR (UniProt Q14204),probe-labelled cysteine peptide fold change,10 µM,-0.0687
same,probe-labelled cysteine peptide fold change,50 µM,-0.154
EAPP_Q56P03_262_AETDVEEIYHPVMCTECSTEVAVYDKDEVFHFFNVLASHS (UniProt Q56P03),probe-labelled cysteine peptide fold change,10 µM,0.00811
same,probe-labelled cysteine peptide fold change,50 µM,-0.175
DUS2_Q9NX74_430_KLAEQAAAIVCLR (UniProt Q9NX74),probe-labelled cysteine peptide fold change,10 µM,-0.207
same,probe-labelled cysteine peptide fold change,50 µM,-0.328
DYNC1H1_Q14204_2594_HEALLYTWLAEHKPLVLCGPPGSGK (UniProt Q14204),probe-labelled cysteine peptide fold change,10 µM,0.0486
same,probe-labelled cysteine peptide fold change,50 µM,-0.151
DYNC1H1_Q14204_2712_IQFVGACNPPTDPGRK (UniProt Q14204),probe-labelled cysteine peptide fold change,10 µM,0.032
same,probe-labelled cysteine peptide fold change,50 µM,0.353
DTX3L_Q8TDB6_585_HEFCAPCINK (UniProt Q8TDB6),probe-labelled cysteine peptide fold change,10 µM,-0.017
same,probe-labelled cysteine peptide fold change,50 µM,-0.343
ECH1_Q13011_159_CPKPVIAAVHGGCIGGGVDLVTACDIR (UniProt Q13011),probe-labelled cysteine peptide fold change,10 µM,-0.00276
same,probe-labelled cysteine peptide fold change,50 µM,-0.154
DPH2_Q9BQC3_157_APVVLLSEPACAHALEALATLLRPR (UniProt Q9BQC3),probe-labelled cysteine peptide fold change,10 µM,0.0215
same,probe-labelled cysteine peptide fold change,50 µM,0.0943
DYRK1A_Q13627_312_IVDFGSSCQLGQR (UniProt Q13627),probe-labelled cysteine peptide fold change,10 µM,0.178
same,probe-labelled cysteine peptide fold change,50 µM,0.0341
DYNC1H1_Q14204_1999_TSAPITCELLNK (UniProt Q14204),probe-labelled cysteine peptide fold change,10 µM,-0.0531
same,probe-labelled cysteine peptide fold change,50 µM,-0.102
DOCK10_Q96BY6_2108_QFADACGQALDVNER (UniProt Q96BY6),probe-labelled cysteine peptide fold change,10 µM,0.0742
same,probe-labelled cysteine peptide fold change,50 µM,0.102
DOCK11_Q5JSL3_492_VLQGNITHCAEPYIK (UniProt Q5JSL3),probe-labelled cysteine peptide fold change,10 µM,-0.173
same,probe-labelled cysteine peptide fold change,50 µM,-0.0184
DTYMK_P23919_117_ENFSLDWCK (UniProt P23919),probe-labelled cysteine peptide fold change,10 µM,-0.175
same,probe-labelled cysteine peptide fold change,50 µM,0.0533
DOCK10_Q96BY6_2164_GVDQTCTR (UniProt Q96BY6),probe-labelled cysteine peptide fold change,10 µM,-0.217
same,probe-labelled cysteine peptide fold change,50 µM,-0.122
DPYSL2_Q16555_179_FQLTDCQIYEVLSVIR (UniProt Q16555),probe-labelled cysteine peptide fold change,10 µM,0.149
same,probe-labelled cysteine peptide fold change,50 µM,0.122
EAF1_Q96JC9_86_DCVLIINHDTGEYVLEK (UniProt Q96JC9),probe-labelled cysteine peptide fold change,10 µM,-0.176
same,probe-labelled cysteine peptide fold change,50 µM,-0.0777
DYNC1H1_Q14204_3389_ASLACGPMVK (UniProt Q14204),probe-labelled cysteine peptide fold change,10 µM,-0.0846
same,probe-labelled cysteine peptide fold change,50 µM,0.126
DOT1L_Q8TEK3_750_QNTPQYLASPLDQEVVPCTPSHVGRPR (UniProt Q8TEK3),probe-labelled cysteine peptide fold change,10 µM,-0.0799
same,probe-labelled cysteine peptide fold change,50 µM,-0.134
DOCK11_Q5JSL3_1883_QGCIEEQCK (UniProt Q5JSL3),probe-labelled cysteine peptide fold change,10 µM,-0.0998
same,probe-labelled cysteine peptide fold change,50 µM,-0.412
ECD_O95905_312_LAHGFEILCSK (UniProt O95905),probe-labelled cysteine peptide fold change,10 µM,-0.157
same,probe-labelled cysteine peptide fold change,50 µM,-0.455
DOCK2_Q92608_41_IQETCGDWYR (UniProt Q92608),probe-labelled cysteine peptide fold change,10 µM,-0.155
same,probe-labelled cysteine peptide fold change,50 µM,0.177
DUSP27_Q5VZP5_912_SNSQKPETDTCSSLAVCDHYASGSR (UniProt Q5VZP5),probe-labelled cysteine peptide fold change,10 µM,-0.203
same,probe-labelled cysteine peptide fold change,50 µM,-0.273
